According to article PMC4974644:
No constants are given. Whether binding was seen depends on the method and setting. In cells and extracts the contact can be indirect. Here binding means that the protein was enriched with, or labelled near, the bait; the list need not be complete.

Target: T1, SALM4 (Lrfn3), endogenous in mouse forebrain (mouse (endogenous in forebrain)) (UniProt Q8BLY3)
T1 sequence: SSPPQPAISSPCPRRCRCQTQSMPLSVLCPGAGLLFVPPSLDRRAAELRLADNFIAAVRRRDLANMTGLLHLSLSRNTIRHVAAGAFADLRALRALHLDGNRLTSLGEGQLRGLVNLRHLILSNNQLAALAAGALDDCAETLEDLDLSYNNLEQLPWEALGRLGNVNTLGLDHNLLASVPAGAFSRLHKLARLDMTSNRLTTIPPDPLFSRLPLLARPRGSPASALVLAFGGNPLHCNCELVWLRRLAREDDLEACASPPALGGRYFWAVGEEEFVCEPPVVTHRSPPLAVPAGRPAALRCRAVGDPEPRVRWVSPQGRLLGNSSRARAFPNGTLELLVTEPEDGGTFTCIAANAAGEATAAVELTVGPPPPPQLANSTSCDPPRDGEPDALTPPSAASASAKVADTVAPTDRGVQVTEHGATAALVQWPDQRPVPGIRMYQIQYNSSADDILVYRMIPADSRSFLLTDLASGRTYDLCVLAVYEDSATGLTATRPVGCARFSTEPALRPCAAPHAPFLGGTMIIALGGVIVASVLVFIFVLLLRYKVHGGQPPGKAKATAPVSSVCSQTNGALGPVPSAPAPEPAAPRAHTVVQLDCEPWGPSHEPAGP
Test: affinity purification with mass spectrometry; mouse forebrain crude synaptosomes (WT and Salm4-/- control, 3 weeks) solubilised in PBS with 0.5% Triton X-100, 0.1% SDS, 0.5 mM EDTA, 0.5 mM EGTA; WGA column eluate immunoprecipitated with SALM4 antibodies (2026) on protein A-Sepharose; bands of a silver-stained gel analysed by LTQ-Orbitrap

B1: SALM2 (Lrfn1), endogenous in mouse forebrain (protein, UniProt Q2WF71 32-766)
chain: QPCPGRCICQNVAPTLTMLCAKTGLLFVPPAIDRRVVELRLTDNFIAAVRRRDFANMTSLVHLTLSRNTIGQVAAGAFADLRALRALHLDSNRLAEVRGDQLRGLGNLRHLILGNNQIRKVESAAFDAFLSTVEDLDLSYNNLEALPWEAVGQMVNLNTLTLDHNLIDHIAEGTFVQLHKLVRLDMTSNRLHKLPPDGLFLRSQGGGPKPPTPLTVSFGGNPLHCNCELLWLRRLTREDDLETCATPEHLTDRYFWSIPEEEFLCEPPLITRQAGGRALVVEGQAVSLRCRAVGDPEPVVHWVAPDGRLLGNSSRTRVRGDGTLDVTITTLRDSGTFTCIASNAAGEATAPVEVCVVPLPLMAPPPAAPPPLTEPGSSDIATPGRPGANDSTSERRLVAAELTSSSVLIRWPAQRPVPGIRMYQVQYNSSADDSLVYRMIPSTSQTFLVNDLAAGRAYDLCVLAVYDDGATALPATRVVGCVQFTTAGDPAPCRPLRAHFLGGTMIIAIGGVIVASVLVFIVLLMIRYKVYGDGDSRRIKGTSRTPPRVSHVCSQTNGAGAQQASAPPAPDRYEALREVAVPAAIEAKAMEAEATSTELEVVLGRSLGGSATSLCLLPSEETSGEESRAMTGPRRSRSGALGPPTSAPPTLALVPGGAPARPRPQQRYSFDGDYGALFQSHSYPRRARRTKRHRSTPHLDGAGGGAAGEDGDLGLGSARARLAFTSTEWMLESTV
binding: binds
